Measured values from article PMC8224564.

Sequences of proteins named here, by UniProt entry; tags and fusion partners are left off. A change or cut given only in a name is not applied to a line headed by its entry. Residues count along the entry.
UniProt Q6U7R4: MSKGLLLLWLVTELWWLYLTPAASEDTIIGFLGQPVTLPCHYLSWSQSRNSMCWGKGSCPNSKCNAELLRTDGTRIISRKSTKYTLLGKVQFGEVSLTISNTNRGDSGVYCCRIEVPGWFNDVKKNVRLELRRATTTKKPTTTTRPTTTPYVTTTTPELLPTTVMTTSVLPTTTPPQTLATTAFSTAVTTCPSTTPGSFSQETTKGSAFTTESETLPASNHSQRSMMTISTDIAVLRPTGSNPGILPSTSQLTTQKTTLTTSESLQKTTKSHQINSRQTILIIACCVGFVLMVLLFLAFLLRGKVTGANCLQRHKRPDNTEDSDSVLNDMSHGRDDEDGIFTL
UniProt P29317, residues 24-976: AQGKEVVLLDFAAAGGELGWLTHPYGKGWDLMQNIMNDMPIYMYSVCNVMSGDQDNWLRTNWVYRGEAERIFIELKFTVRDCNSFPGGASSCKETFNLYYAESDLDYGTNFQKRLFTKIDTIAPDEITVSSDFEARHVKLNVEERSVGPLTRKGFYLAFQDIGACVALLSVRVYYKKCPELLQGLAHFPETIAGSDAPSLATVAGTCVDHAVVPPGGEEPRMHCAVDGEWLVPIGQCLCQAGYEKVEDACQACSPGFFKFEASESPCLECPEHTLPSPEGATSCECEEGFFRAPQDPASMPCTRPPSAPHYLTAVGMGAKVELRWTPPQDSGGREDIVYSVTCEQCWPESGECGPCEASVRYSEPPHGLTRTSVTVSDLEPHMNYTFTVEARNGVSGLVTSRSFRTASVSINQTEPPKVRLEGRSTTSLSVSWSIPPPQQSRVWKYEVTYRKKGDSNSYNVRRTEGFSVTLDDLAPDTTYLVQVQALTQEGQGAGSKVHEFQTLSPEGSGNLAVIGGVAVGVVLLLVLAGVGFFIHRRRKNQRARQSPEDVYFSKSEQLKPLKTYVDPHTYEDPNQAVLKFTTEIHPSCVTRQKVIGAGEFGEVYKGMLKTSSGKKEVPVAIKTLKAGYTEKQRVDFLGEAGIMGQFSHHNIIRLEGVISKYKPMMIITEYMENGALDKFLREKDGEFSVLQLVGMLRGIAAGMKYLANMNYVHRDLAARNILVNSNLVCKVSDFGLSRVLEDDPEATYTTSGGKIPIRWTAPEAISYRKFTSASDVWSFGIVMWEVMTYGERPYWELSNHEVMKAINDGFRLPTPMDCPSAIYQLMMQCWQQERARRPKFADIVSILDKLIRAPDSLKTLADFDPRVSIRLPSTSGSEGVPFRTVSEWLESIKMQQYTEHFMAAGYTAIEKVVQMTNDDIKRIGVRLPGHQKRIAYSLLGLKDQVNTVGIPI

Target: Tim-4^ΔIgV (UniProt Q6U7R4)
Assay: co-IP; 293T cells co-transfected, lysates incubated with anti-HA antibody-conjugated agarose beads, 4 °C, 2 h; immunoblot

For “EphA2 (from UniProt P29317 24-976) (receptor)”, the binding was “no binding”.

Results are given in words; binding and its absence hold for the method and conditions named. Binding seen in cells or lysates may run through a third protein.
